Laboratory results from paper PMC11322666.
Positions count from the first letter of the chain named. No constants are given. Whether binding was seen depends on the method and setting. In cells and extracts the contact can be indirect. Some results given as binding are weak or reduced against the parent protein; the word gives no strength. Tags and fused reporters may be left off the sequences shown.

Amino acid sequences for entries named in this document (tags omitted). A change or cut given only in a name is not applied to a line headed by its entry.
UniProt Q9HAU5: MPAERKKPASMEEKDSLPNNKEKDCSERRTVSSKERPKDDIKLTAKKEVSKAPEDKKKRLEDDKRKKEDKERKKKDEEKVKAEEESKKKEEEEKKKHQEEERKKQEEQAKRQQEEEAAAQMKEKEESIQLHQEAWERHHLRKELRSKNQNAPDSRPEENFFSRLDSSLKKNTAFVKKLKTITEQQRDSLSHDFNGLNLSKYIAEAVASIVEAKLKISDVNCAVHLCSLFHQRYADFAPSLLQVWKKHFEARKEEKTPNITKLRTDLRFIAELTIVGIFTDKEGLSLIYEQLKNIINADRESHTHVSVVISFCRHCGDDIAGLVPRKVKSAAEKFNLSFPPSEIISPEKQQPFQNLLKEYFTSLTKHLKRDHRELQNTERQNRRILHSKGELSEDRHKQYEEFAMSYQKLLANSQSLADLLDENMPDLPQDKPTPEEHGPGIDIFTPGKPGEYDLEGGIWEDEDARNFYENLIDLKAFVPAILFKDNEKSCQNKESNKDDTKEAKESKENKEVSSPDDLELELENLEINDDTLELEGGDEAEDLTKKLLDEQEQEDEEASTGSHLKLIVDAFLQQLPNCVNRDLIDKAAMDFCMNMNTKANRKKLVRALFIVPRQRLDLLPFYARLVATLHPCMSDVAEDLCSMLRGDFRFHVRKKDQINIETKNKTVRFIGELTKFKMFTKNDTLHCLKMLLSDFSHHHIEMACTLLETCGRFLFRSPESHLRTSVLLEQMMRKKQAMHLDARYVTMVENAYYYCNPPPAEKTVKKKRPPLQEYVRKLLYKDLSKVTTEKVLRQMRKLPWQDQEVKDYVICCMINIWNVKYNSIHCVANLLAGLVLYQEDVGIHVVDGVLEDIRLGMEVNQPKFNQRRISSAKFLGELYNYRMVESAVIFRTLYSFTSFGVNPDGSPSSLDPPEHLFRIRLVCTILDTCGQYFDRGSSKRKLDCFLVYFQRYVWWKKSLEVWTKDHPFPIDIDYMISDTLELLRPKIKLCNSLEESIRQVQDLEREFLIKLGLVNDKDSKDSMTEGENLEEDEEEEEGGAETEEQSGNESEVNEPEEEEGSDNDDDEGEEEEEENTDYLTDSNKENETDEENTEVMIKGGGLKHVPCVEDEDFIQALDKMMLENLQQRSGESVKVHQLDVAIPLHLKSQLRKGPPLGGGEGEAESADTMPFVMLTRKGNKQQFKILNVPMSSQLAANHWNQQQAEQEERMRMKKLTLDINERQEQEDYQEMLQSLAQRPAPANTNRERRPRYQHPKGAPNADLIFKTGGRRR
UniProt O75460: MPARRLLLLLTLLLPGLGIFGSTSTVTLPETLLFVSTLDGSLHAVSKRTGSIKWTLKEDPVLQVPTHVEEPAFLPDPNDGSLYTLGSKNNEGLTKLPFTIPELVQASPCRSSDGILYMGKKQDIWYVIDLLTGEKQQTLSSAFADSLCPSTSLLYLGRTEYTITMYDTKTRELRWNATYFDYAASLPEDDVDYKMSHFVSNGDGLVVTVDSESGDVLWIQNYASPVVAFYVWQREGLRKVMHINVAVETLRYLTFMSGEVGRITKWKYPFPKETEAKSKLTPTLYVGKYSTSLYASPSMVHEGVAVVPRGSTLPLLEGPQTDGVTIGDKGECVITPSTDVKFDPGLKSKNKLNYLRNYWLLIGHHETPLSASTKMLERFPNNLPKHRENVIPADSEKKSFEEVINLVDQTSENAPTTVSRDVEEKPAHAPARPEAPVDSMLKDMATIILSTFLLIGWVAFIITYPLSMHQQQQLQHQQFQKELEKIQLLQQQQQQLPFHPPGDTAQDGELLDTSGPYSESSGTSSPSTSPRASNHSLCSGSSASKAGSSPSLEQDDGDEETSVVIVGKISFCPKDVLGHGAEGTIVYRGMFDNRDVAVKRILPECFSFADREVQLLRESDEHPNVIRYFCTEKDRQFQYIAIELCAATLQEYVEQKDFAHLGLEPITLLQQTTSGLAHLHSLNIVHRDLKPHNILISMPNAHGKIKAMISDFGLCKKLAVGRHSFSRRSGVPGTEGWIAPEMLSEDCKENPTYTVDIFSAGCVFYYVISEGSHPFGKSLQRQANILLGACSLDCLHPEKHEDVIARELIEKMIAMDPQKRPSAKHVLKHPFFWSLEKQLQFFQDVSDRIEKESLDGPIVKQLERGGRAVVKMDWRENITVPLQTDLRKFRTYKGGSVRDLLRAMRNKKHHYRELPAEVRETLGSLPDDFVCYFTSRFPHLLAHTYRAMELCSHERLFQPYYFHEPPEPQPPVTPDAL

How the values were obtained:
[1] = target: T1, UPF3B^WT, Flag tagged (human) (UniProt Q9BZI7); assay: co-IP; HEK293T cells with gradient overexpression of UPF2 MIF4G-3 plasmid for 24 h, lysates immunoprecipitated by anti-Flag antibody
T1 sequence: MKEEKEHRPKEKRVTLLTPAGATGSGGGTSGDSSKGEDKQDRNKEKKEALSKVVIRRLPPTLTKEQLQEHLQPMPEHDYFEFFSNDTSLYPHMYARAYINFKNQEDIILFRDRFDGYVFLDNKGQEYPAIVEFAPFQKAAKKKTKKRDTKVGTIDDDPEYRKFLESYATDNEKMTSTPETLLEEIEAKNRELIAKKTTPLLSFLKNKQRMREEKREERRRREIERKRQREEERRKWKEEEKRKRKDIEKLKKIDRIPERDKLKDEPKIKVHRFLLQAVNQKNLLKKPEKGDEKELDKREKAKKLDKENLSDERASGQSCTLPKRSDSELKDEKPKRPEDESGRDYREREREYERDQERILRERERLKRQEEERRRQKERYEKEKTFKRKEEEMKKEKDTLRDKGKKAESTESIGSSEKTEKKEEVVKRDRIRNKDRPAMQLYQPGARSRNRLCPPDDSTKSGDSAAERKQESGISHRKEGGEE

[2] = target: T2, UPF3B^T197A, Flag tagged (human) (UniProt Q9BZI7); assay: co-IP; lysates of transfected HEK293T or U2OS cells (24 h) in NETN buffer (20 mM Tris-HCl pH 8.0, 100 mM NaCl, 1 mM EDTA, 0.5% NP-40), IP with anti-Flag (M2) magnetic beads or the indicated antibodies, western blot; Fig. 3G two-way
T2 sequence: T1 sequence with T197A

[3] = target: T3, UPF3B^T169A, Flag tagged (human) (UniProt Q9BZI7); assay: as above
T3 sequence: T1 sequence with T169A

[4] = target: T4, UPF3B^Y160F, Flag tagged (human) (UniProt Q9BZI7); assay: as above
T4 sequence: T1 sequence with Y160F

[5] = target: T5, UPF3B^T197D, Flag tagged (human) (UniProt Q9BZI7); assay: as above
T5 sequence: T1 sequence with T197D

[6] = target: T1, UPF3B^WT, Flag tagged (human); assay: as above
[7] = target: T6, UPF3B^T198A, Flag tagged (human) (UniProt Q9BZI7); assay: as above
T6 sequence: T1 sequence with T198A

[8] = target: T7, UPF3B^T198D, Flag tagged (human) (UniProt Q9BZI7); assay: as above
T7 sequence: T1 sequence with T198D

[9] = target: T8, GST-UPF3B fusion protein (human) (UniProt Q9BZI7); assay: pull-down; GST fusion protein from Rosetta cells on Glutathione Sepharose beads, incubated with HEK293T lysate for 4 h at 4 °C, washed three times with RIPA buffer, western blot with anti-Flag or anti-GST; only the target purified
T8 sequence: T1 sequence

Measured: binding

UPF2 MIF4G-3 segment (from UniProt Q9HAU5 773-986) (domain or fragment)
binds: [1]

inositol-requiring enzyme-1α (IRE1α), endogenous (from UniProt O75460 19-977)
not listed: [9]
binds: all other assays above

IRE1α^K-Flag (from UniProt O75460 571-832) (domain or fragment)
binds: [9]

UPF2, endogenous (from UniProt Q9HAU5 1-1272)
binds: [4] | [5] | [6] | [8]
